# Laboratory results published in the supplement of paper PMC12819154, “High-throughput peptide-centric local stability assay extends protein–ligand identification to membrane proteins, tissues and bacteria” (Nature Structural & Molecular Biology, 2025).
# Chains of the proteins cited; added tags and fusions are not shown. Lines headed by an entry give the natural chain unless they say otherwise; changes in a name come on top.
# UniProt P0A7D4: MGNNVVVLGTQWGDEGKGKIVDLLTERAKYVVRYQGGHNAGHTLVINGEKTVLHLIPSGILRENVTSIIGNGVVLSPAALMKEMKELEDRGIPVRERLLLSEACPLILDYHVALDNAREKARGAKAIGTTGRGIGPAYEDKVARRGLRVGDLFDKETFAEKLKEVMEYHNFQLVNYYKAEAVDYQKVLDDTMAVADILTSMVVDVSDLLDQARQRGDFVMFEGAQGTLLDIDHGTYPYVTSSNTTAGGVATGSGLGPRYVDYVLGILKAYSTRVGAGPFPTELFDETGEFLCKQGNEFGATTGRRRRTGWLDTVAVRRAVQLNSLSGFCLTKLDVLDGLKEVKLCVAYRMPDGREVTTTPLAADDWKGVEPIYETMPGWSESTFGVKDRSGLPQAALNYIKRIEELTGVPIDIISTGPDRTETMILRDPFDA
# UniProt P0A800, whole entry: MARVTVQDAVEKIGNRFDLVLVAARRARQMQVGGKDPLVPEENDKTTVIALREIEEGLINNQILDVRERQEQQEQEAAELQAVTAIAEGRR
# Some of the results follow. Most values lie at the level of the controls, where differences are scatter.
# Legend:
# Experiment in all cases: log2 fold change of tryptic peptide abundance, ligand vs vehicle (limited proteolysis) (log2 ratio); higher = more trypsin-susceptible (destabilized)
# UniProt P0A703 = target: T1, UniProt P0A703; details: peptide sequence: LRVDTGDSLIVK; peptide start residue: 97; ligand concentration: 10 uM; sample: E. coli crude lysate
# T1 sequence (whole entry): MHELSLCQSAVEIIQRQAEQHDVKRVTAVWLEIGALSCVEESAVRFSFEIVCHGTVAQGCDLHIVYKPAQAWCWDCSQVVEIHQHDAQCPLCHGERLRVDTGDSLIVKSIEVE
# UniProt P0A7D4 = details: peptide sequence: GAKAIGTTGR; peptide start residue: 123; ligand concentration: 10 uM; sample: E. coli crude lysate
# UniProt P0A7Y8 = target: T2, UniProt P0A7Y8; details: peptide sequence: LRQHELPAMDFVVVAKK; peptide start residue: 75; ligand concentration: 10 uM; sample: E. coli crude lysate
# T2 sequence (whole entry): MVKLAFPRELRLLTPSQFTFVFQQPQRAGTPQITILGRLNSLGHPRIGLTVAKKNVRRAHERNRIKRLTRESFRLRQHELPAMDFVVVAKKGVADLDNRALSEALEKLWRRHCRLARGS
# UniProt P0A800 = details: peptide sequence: QMQVGGKDPLVPEENDK; peptide start residue: 29; ligand concentration: 10 uM; sample: E. coli crude lysate
# UniProt P0A8F8 = target: T3, UniProt P0A8F8; details: peptide sequence: YLHSDIDTVER; peptide start residue: 475; ligand concentration: 10 uM; sample: E. coli crude lysate
# T3 sequence (whole entry): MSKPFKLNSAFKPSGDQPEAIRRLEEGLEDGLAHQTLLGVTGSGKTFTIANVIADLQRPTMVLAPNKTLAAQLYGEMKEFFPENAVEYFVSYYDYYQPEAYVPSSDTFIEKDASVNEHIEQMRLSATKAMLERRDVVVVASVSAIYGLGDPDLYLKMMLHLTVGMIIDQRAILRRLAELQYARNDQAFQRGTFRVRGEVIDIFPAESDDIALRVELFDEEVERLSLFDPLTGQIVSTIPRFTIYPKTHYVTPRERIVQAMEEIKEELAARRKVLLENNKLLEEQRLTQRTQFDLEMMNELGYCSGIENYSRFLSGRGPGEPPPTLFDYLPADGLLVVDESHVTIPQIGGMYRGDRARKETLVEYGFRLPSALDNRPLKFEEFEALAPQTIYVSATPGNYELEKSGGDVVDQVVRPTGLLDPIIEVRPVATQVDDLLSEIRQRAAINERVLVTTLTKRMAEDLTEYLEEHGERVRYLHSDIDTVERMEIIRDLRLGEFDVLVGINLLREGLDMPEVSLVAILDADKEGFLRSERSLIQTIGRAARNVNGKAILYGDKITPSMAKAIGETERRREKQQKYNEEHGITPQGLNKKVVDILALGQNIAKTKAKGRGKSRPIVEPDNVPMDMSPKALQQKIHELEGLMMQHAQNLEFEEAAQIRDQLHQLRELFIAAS
# UniProt P0A8Y3 = target: T4, UniProt P0A8Y3; details: peptide sequence: KSFHMGEAFHQHER; peptide start residue: 36; ligand concentration: 10 uM; sample: E. coli crude lysate
# T4 sequence (whole entry): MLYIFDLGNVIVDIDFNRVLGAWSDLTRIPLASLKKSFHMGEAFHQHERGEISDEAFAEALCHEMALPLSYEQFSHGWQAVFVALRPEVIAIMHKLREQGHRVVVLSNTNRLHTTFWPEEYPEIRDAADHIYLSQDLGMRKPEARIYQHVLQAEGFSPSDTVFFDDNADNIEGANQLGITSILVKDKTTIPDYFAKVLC
# UniProt P0A908 = target: T5, UniProt P0A908; details: peptide sequence: AKDSGDHQMR; peptide start residue: 91; ligand concentration: 10 uM; sample: E. coli crude lysate
# T5 sequence (whole entry): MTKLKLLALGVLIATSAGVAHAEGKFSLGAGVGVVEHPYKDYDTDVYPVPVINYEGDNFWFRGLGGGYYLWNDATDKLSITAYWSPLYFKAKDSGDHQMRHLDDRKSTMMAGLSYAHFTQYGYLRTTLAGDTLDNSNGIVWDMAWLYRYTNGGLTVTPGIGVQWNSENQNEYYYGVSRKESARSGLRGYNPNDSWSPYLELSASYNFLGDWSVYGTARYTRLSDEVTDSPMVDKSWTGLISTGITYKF
# UniProt P0A915 = target: T6, UniProt P0A915; details: peptide sequence: LGGAQQHDSVR; peptide start residue: 188; ligand concentration: 10 uM; sample: E. coli crude lysate
# T6 sequence (whole entry): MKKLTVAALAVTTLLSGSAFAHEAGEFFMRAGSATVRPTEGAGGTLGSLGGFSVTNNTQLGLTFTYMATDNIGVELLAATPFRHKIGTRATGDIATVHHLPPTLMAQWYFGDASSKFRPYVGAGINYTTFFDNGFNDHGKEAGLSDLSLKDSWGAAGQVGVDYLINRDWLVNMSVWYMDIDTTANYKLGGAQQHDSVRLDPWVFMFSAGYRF
# UniProt P0A959 = target: T7, UniProt P0A959; details: peptide sequence: SSKLENVCYDIR; peptide start residue: 7; ligand concentration: 10 uM; sample: E. coli crude lysate
# T7 sequence (whole entry): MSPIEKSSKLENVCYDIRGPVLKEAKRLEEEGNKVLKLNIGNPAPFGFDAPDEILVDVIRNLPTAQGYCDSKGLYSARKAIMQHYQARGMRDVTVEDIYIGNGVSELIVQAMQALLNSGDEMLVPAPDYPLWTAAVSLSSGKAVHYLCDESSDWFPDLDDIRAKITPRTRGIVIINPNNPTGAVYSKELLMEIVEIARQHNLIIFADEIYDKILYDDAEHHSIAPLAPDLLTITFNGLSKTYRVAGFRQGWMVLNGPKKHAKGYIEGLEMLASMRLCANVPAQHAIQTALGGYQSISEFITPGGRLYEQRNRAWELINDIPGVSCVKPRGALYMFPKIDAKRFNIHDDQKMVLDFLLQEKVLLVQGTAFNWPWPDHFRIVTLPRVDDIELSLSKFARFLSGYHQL
# UniProt P0A9B6 = target: T8, UniProt P0A9B6; details: peptide sequence: VPTINVTAIDLSVTVKKPVK; peptide start residue: 237; ligand concentration: 10 uM; sample: E. coli crude lysate
# T8 sequence (whole entry): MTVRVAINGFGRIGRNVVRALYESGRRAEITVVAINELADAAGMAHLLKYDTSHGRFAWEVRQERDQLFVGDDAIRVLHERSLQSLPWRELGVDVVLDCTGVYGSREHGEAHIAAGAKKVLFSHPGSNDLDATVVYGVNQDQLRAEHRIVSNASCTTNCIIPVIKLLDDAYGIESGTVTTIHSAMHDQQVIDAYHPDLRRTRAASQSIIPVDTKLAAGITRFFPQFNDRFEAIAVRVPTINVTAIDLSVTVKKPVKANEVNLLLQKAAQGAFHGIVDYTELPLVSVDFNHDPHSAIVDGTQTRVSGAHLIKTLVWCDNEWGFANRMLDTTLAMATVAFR
# UniProt P0A9C3 = target: T9, UniProt P0A9C3; details: peptide sequence: GYDHAFLLQAK; peptide start residue: 243; ligand concentration: 10 uM; sample: E. coli crude lysate
# T9 sequence (whole entry): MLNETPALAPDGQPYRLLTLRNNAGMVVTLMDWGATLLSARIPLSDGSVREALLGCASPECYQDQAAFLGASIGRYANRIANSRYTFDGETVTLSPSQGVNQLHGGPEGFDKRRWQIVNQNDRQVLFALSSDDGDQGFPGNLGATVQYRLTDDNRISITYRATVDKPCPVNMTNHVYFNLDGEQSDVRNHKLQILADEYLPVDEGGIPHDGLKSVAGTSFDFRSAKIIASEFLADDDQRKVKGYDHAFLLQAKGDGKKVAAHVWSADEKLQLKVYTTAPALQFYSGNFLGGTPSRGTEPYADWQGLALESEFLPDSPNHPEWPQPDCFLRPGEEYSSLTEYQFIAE
# UniProt P0A9G4 = target: T10, UniProt P0A9G4; details: peptide sequence: HIEELQSMR; peptide start residue: 94; ligand concentration: 10 uM; sample: E. coli crude lysate
# T10 sequence (whole entry): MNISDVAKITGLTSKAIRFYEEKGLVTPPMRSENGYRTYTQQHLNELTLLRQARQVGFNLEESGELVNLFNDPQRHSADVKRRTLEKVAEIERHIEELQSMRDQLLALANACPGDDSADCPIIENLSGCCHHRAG
# UniProt P0A9I3 = target: T11, UniProt P0A9I3; details: peptide sequence: AAQLHIQITAHSPASADAANIEQAFK; peptide start residue: 138; ligand concentration: 10 uM; sample: E. coli crude lysate
# T11 sequence (whole entry): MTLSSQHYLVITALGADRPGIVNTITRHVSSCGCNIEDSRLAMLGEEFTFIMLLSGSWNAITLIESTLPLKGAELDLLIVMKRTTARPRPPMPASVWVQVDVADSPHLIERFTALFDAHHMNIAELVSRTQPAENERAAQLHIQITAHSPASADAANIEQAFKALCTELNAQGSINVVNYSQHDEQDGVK
# UniProt P0A9J4 = target: T12, UniProt P0A9J4; details: peptide sequence: ARAHGIAVPENTR; peptide start residue: 268; ligand concentration: 10 uM; sample: E. coli crude lysate
# T12 sequence (whole entry): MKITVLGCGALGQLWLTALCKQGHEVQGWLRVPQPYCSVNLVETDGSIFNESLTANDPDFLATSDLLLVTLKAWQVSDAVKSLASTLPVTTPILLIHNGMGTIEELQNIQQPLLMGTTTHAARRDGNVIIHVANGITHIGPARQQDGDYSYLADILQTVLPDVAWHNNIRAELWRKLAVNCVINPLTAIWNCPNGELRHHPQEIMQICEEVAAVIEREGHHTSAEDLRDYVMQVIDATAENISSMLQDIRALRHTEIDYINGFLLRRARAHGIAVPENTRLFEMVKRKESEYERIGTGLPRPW
# UniProt P0A9K7 = target: T13, UniProt P0A9K7; details: peptide sequence: RQPTASDLR; peptide start residue: 79; ligand concentration: 10 uM; sample: E. coli crude lysate
# T13 sequence (whole entry): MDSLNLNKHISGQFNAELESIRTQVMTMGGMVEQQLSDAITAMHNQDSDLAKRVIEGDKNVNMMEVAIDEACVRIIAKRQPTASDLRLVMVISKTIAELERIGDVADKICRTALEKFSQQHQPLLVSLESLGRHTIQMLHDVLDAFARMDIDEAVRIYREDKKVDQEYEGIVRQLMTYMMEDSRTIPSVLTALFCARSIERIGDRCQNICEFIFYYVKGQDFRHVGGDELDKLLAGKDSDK
# UniProt P0A9L3 = target: T14, UniProt P0A9L3; details: peptide sequence: ALREIHERADAVR; peptide start residue: 61; ligand concentration: 10 uM; sample: E. coli crude lysate
# T14 sequence (whole entry): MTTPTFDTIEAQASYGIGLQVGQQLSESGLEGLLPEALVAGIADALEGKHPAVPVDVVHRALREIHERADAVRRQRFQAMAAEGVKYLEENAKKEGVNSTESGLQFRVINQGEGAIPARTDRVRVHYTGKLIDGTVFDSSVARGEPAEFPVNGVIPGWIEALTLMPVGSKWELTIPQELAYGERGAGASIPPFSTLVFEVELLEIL
# UniProt P0A9L8 = target: T15, UniProt P0A9L8; details: peptide sequence: VLSEITSSLNK; peptide start residue: 79; ligand concentration: 10 uM; sample: E. coli crude lysate
# T15 sequence (whole entry): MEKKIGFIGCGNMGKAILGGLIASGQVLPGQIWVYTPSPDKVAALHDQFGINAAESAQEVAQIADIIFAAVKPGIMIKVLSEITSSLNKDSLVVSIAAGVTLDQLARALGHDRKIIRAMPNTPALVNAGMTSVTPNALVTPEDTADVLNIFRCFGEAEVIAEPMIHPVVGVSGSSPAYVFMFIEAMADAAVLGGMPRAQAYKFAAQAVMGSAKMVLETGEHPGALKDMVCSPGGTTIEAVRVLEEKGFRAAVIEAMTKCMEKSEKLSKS
# UniProt P0A9M8 = target: T16, UniProt P0A9M8; details: peptide sequence: LSVFKPIAQPRTGGDAPDQTTTIVR; peptide start residue: 34; ligand concentration: 10 uM; sample: E. coli crude lysate
# T16 sequence (whole entry): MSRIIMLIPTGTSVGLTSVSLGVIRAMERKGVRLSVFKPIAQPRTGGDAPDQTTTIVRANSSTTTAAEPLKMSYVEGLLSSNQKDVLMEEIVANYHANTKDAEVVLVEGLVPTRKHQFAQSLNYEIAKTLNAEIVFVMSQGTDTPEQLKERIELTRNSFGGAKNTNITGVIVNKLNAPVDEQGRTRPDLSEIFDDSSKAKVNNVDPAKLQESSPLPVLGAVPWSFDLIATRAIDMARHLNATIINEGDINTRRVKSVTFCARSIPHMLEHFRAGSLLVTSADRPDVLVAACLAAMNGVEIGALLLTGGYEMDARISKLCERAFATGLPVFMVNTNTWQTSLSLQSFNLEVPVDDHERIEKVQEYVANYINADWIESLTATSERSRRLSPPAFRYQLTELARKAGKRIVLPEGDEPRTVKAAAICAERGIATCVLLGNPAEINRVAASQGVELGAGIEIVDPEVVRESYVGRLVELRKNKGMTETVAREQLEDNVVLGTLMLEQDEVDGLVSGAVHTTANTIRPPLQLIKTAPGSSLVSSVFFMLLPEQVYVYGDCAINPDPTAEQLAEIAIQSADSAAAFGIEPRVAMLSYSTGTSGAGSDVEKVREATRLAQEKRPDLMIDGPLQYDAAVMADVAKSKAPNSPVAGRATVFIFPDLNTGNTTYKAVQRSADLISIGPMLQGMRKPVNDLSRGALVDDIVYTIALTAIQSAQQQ
structure (smiles),measurement,setting,value
CC1(C)S[C@@H]2[C@H](NC(=O)[C@H](N)c3ccccc3)C(=O)N2[C@H]1C(=O)O [ampicillin],log2 fold change,UniProt P0A703,-0.118
same,log2 fold change,UniProt P0A7D4,-0.725
same,log2 fold change,UniProt P0A7Y8,0.436
same,log2 fold change,UniProt P0A800,0.1
same,log2 fold change,UniProt P0A8F8,0.26
same,log2 fold change,UniProt P0A8Y3,0.56
same,log2 fold change,UniProt P0A908,0.102
same,log2 fold change,UniProt P0A915,0.211
same,log2 fold change,UniProt P0A959,0.215
same,log2 fold change,UniProt P0A9B6,0.391
same,log2 fold change,UniProt P0A9C3,0.507
same,log2 fold change,UniProt P0A9G4,0.0775
same,log2 fold change,UniProt P0A9I3,-0.337
same,log2 fold change,UniProt P0A9J4,-0.319
same,log2 fold change,UniProt P0A9K7,0.179
same,log2 fold change,UniProt P0A9L3,0.752
same,log2 fold change,UniProt P0A9L8,-0.417
same,log2 fold change,UniProt P0A9M8,-0.567

# Shown as tab-separated lines: entries from further up
structure (smiles)	measurement	setting	value
CC1(C)S[C@@H]2[C@H](NC(=O)[C@H](N)c3ccccc3)C(=O)N2[C@H]1C(=O)O [ampicillin]	log2 fold change	UniProt P0A9J4	-0.319
same	log2 fold change	UniProt P0A9K7	0.179
